Laboratory results from PubChem BioAssay AID720537 (National Center for Advancing Translational Sciences (NCATS), 2013).
What follows is the remainder of the data, with few or none of the hits. Records with an inconclusive call do not appear. Active and inactive are the calls of the source. Calls follow the shape of the dose curve; as a rule, active = well fitted inhibition curve with a large enough effect; inconclusive = small, poorly fitted or top-dose-only effect; inactive = no such curve, though single readings can be large or run the other way.

Assay: qHTS for Inhibitors of TGF-b: Hit Validation in HepG2 Cells using COP promoter;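 also: 0% = TGF-beta stimulated DMSO wells and -100% = unstimulated cell wells; nearly all actives have a fitted effect of over 70% in size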
Conditions: HepG2 COP-GFP TGF-b reporter, GFP fluorescence, 18 h, cells stimulated by added recombinant TGF-beta; at 46.1 µM (top of the series)
Description: TGF-b is a main component in the TGF-b signaling pathway which plays diverse roles in cellular and development pathways. TGF-b is the mediated by the transcription factors Smads. Although the Smad-dependent pathway is the primary canonical TGF-b signaling node, TGF-b1 can also activate alternative signaling pathways, including those involving MAPK (ERK, JNK and p38). This interaction may mediate or enhance Smad-dependent responses, or can exert Smad-independent effects. The complexity of this signaling cascade allows the TGF-b superfamily to perform unique, overlapping or redundant functions. […] We aim to identify Smad3-small molecule antagonists using a quantitative high throughput screening (qHTS) approach. […]
Suspensions of trypsinized HEPG2 COP-GFP cells were dispensed into white, tissue culture-treated, solid 1536-well plates at 5uL/well (1000 cells/well final concentration) in DMEM medium supplemented with 1% FBS. […] The plates were measured on an Acumen eX3 Explorer plate reader for GFP fluorescence (ex488/em500-530). GFP values were calculated by determining the mean GFP fluorescence of individual cells, and compiling these values for each well to determine a total well GFP signal. The %Activity was determined from the corrected fluorescence values. […] Concentration-response curves were fitted to the signals arising from the resulting fluorescence. […]

SMILES	activity, negative = inhibition
COc1c(O)cc2c(c1OC)-c1ccc(SC)c(=O)cc1C(NC(C)=O)CC2 (stereo unspecified)	inactive: -11.6%
